# Assay results reported in PubChem BioAssay AID1259415 (National Center for Advancing Translational Sciences (NCATS), 2018).
# The whole screen tested about 410,000 compounds, of which about 18,000 (4.4%) were called active. Inconclusive means that the source gave no clear call. Such entries were picked first, then a sample of the others. Rule as the data show it: active = activity change below about -60%; inconclusive = no clear call, values can overlap the other calls; inactive = above about -39%.
# Test: qHTS Assay for inhibitors of the human cytomegalovirus (HCMV)
# Details: HFF cells, HCMV-luciferase reporter, 72 h; at 57.5 µM; hits give low values
# In short: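 Two-dose cell screen: HFF monolayers treated with compounds and infected with luciferase-expressing HCMV at 1 PFU/cell, 72 h at 37C, then lysed for luciferase measurement.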
# % is scaled to controls: 0 for no effect and ±100 for the full control effect.
row,Structure (SMILES),"activity change, negative = inhibition"
1,COc1ccc(S(=O)(=O)N2CCC(C(=O)NC3CC(C)(C)NC(C)(C)C3)CC2)cc1,inconclusive: -46.9%
2,O=C(Nc1ccccc1)/C(=C/c1ccc(F)cc1)NC(=O)c1ccco1,inconclusive: -42.6%
3,N#Cc1ccc(N2CCc3ccccc3C2)c([N+](=O)[O-])c1,inconclusive: -53.3%
4,COc1cc(C(O)c2nc(/C=C/c3ccccc3)cs2)ccc1F (centres undefined),inconclusive: -47.6%
5,CC(OC(=O)c1ccc(S(C)(=O)=O)c([N+](=O)[O-])c1)C(=O)NC1C2CC3CC(C2)CC1C3 (centres undefined),active: -97.1%
6,CC(=O)Nc1ccc(NC(=O)C(C)OC(=O)CN(C)S(=O)(=O)c2ccc(Cl)cc2)cc1 (centres undefined),inconclusive: -54.1%
7,Cc1ccc(NC(=O)Cn2sc3ccccc3c2=O)cc1,inconclusive: -58.4%
8,CC(=O)c1cccc(OCc2cc(C(=O)NC3CCN(Cc4ccccc4)CC3)no2)c1,inconclusive: -40.6%
9,CCOC(=O)C1(C)C=C(Nc2ccc(O)cc2)C(=O)N1c1ccc(O)cc1 (centres undefined),active: -70.4%
10,Cc1cc(C)cc(N2CC(C)Cn3c2nc2c3c(=O)[nH]c(=O)n2C)c1 (centres undefined),inconclusive: -41.7%
11,COc1cc(/C=N/Nc2ncc(C(F)(F)F)cc2Cl)cc(OC)c1OC,inactive: -31.6%
12,Cc1ccc(NC(=O)COC(=O)C2CCN(c3ccc(C(F)(F)F)cn3)CC2)cc1,active: -73.5%
13,Cc1csc(NC(=O)C(NS(=O)(=O)c2ccc(Br)s2)c2ccccc2)n1 (centres undefined),inconclusive: -43.5%
14,Cc1ccc(CNC(=O)C(=O)NCC2OCCN2S(=O)(=O)c2ccc(Br)cc2)cc1 (centres undefined),inconclusive: -56.9%
15,Cc1nc2ccccn2c1C(=O)NCc1cccnc1,inconclusive: -43.5%
16,O=C(Cc1ccc(F)cc1)Nc1cccc(-c2cn3c(n2)SCC3)c1,inactive: -17.4%
17,C=CCn1c(SCc2ccc(C#N)cc2)nnc1-c1ccc(C)cc1,inconclusive: -54.6%
18,COCCN1C=C2C(=O)C(C)(OC(=O)C3CCCC3)C(=O)C=C2C=C1c1ccsc1 (centres undefined),inconclusive: -42.3%
19,O=C(NCc1cccc(Cl)c1)c1oc(=O)c2ccccc2c1-c1ccccc1,active: -68.7%
20,O=C1C2C(c3cccc(/C=C/c4ccccc4)c3)CC=CC2C(c2ccc(C(F)(F)F)cc2)N1Cc1ccccc1 (centres undefined),inconclusive: -59.5%
21,Cc1cc(C)c(NC(=O)CNC(=O)c2ccc3ncsc3c2)c(C)c1,inactive: 0%

row,Structure (SMILES),"activity change, negative = inhibition"
1,c1ccc(C2NCc3ccccc3-n3cccc32)cc1 (centres undefined),inconclusive: -41.4%
2,CC1CN(C(=O)c2ccc(CNS(=O)(=O)c3cccc(Cl)c3)cc2)CC(C)O1 (centres undefined),inactive: -8.22%
3,CN(C(=O)Cn1nc(C(=O)O)c2ccccc2c1=O)C1CCCCC1,inactive: 39.3%
4,CCOc1ccc(C2NC(=S)NC3=C2CCc2ccccc23)cc1 (centres undefined),inconclusive: -49%
5,COc1ccc(CCNC(=O)Cn2c(=O)n(-c3ccc(C)c(F)c3)c(=O)c3sccc32)cc1OC,inconclusive: -43.8%
6,Cc1ccc(NC(=O)Cc2nc(CSc3nnc(-c4ccc5c(c4)OCO5)o3)cs2)cc1,inactive: 108%
7,CC(=O)c1c(OCC(=O)N(C)C2CCCCC2)ccc2c(C)cc(=O)oc12,inconclusive: -52.5%
8,CCN(CC(=O)NCc1ccc(Cl)cc1)C(=O)c1cc(OC)cc(OC)c1,inactive: -3.65%
9,CCc1noc(C)c1C(=O)N(C)CC(=O)Nc1cccc(OC)c1,inconclusive: -57.9%
10,C#Cc1ccc([C@H]2C=C(C(=O)N3CCN(Cc4ccc5c(c4)OCO5)CC3)O[C@@H](OCC)[C@@H]2CCCO)cc1,inconclusive: -46.2%
11,O=C(COC(=O)c1cccc(S(=O)(=O)N2CCc3ccccc32)c1)NCc1ccco1,active: -96%
12,CS(=O)(=O)N1N=C(c2ccco2)CC1c1ccc(Cl)cc1 (centres undefined),inconclusive: -47.9%
13,COc1cc(C2C3=C(COC3=O)Oc3cc4c(cc32)OCO4)cc(OC)c1OC (centres undefined),active: -84.2%
14,COC(=O)C[C@@H]1CC[C@@H](NS(=O)(=O)c2cccc(OC)c2)[C@@H](CO)O1,inactive: 11.1%
15,COC(=O)c1c(NC(=O)c2c(Cl)cnn2C)sc(C)c1C,inconclusive: -41.1%
16,Cc1c(Cl)cccc1NC(=O)CCC(=O)N/N=C/c1ccc[nH]1,active: -99.6%
17,Cn1cc(C(=O)Nc2ccc(Cl)cc2)c(C(F)(F)F)n1,inconclusive: -51.1%
18,CC1CC(C)CN(C(=O)CCCn2c(=O)c3cccn3c3cccnc32)C1 (centres undefined),inconclusive: -41.7%
19,CCOC(=O)C1=C(CNCc2ccccc2)NC(=O)NC1c1ccc(C)cc1 (centres undefined),active: -69.7%
20,O=c1/c(=C/c2ccc([N+](=O)[O-])cc2)sc2n1CCCN=2,active: -90.9%
21,COc1ccc(N(C(=O)c2ccccc2C)S(=O)(=O)c2ccc3c(c2)n(C)c(=O)n3C)cc1,inactive: 0.742%

row,Structure (SMILES),"activity change, negative = inhibition"
1,CCC(C)C(=O)C(=O)N1CCC(n2nccc2NC(=O)CCOc2ccccc2)CC1 (centres undefined),inactive: -10.1%
2,CCCCCn1c(=O)[nH]c2cc(C(=O)NCc3ccc4c(c3)OCO4)ccc2c1=O,inconclusive: -49.4%
3,O=C(c1ccco1)N1CCN(c2ncnc3scc(-c4ccc(Cl)cc4)c23)CC1,inconclusive: -57.4%
4,O=C(/C=C/c1ccco1)N(Cc1cccc(Cl)c1)C1CCS(=O)(=O)C1 (centres undefined),inactive: 23.1%
5,O=C(c1ccccc1NS(=O)(=O)c1cccc([N+](=O)[O-])c1)N1CCCC1,active: -78.5%
6,O=C(O)CCCn1c(O)c(C=C2N=c3ccccc3=N2)sc1=S,inconclusive: -42.6%
7,Cc1ccc(C2C3C(=O)N(c4ccccc4)C(=O)C3N3CCCN23)cc1 (centres undefined),inactive: 84.7%
8,Cc1ccc(NS(=O)(=O)c2ccc(NC(=O)C(C)Sc3ccc(Cl)cc3)cc2)c(C)c1 (centres undefined),inactive: -12.2%
9,Cc1cc(CN2CCC(n3nccc3NC(=O)c3ccccc3Cl)CC2)cc(C)c1O,inconclusive: -50.3%
10,CC(SC1=NCCS1)C(=O)Nc1nnc(-c2ccc(F)cc2)s1 (centres undefined),inactive: 26.2%
11,COCCCNC(=O)c1c(N)n(/N=C/c2ccccn2)c2nc3ccccc3nc12,inconclusive: -50%
12,N#Cc1cc(-c2ccccc2)nc(Oc2ccccc2)n1,inconclusive: -49.4%
13,CCc1ccc(OCC2c3cc(OC)c(OC)cc3CCN2C(=O)Cc2ccc(OC)c(OC)c2)cc1 (centres undefined),inactive: 11.8%
14,NS(=O)(=O)c1ccc(CCNC(=O)CN2CCN(c3ccc(F)cc3)CC2)cc1,inconclusive: -46.8%
15,COc1ccc(S(=O)(=O)N2CCc3ccccc32)cc1C(=O)NCCc1ccccn1,inconclusive: -40.9%
16,OC[C@@H]1CN(CCc2ccccc2)C[C@H](n2cnc3c(NCc4ccc(F)cc4)ncnc32)O1,active: -65.6%
17,CCOc1ccc(C(=O)C(CCC(CN(C)C)C(=O)c2ccc(OCC)cc2)CN(C)C)cc1 (centres undefined),active: -98.9%
18,O=C(Nc1ccc(Br)cn1)c1ccc(Br)s1,active: -99.3%
19,CSc1ccccc1NC(=O)COc1ccc(Cl)cc1Cl,inconclusive: -50.3%
20,O=C(Nc1nnc(Cc2ccc([N+](=O)[O-])cc2)s1)c1ccc2c(c1)OCO2,inconclusive: -41.5%
21,COc1cccc(C(=O)Oc2cc3c4c(c2)C(C)=CC(C)(C)N4C(=O)C3=O)c1,active: -77.1%

row,Structure (SMILES),"activity change, negative = inhibition"
1,Cc1ccc(-c2ccc(/C=C3/NC(=O)NC3=O)o2)cc1[N+](=O)[O-],inconclusive: -48.2%
2,COc1ccc(-c2noc(CSc3nnc(-c4ccncc4)n3-c3cccc(C)c3)n2)cc1OC,inactive: -14.5%
3,CC(C)C[C@H]1CNC(=S)N1CC1CCCN1C[C@H](Cc1ccccc1)N1C[C@H](Cc2ccc(O)cc2)N(CC2CCCCCC2)C1=S (some centres undefined),active: -101%
4,CC1CCN(c2ccc3nnc(CCC(=O)N4CCCCC4)n3n2)CC1,inconclusive: -58.1%
5,O=[N+]([O-])c1nn(-c2ccc3c(c2)OCCO3)n(O)c1=NC1CCCCCC1,inconclusive: -58.5%
6,CCOc1ccc2ccccc2c1C(=O)NCC(c1ccc(N(C)C)cc1)N(C)C (centres undefined),inactive: -37.1%
7,Cn1ccs/c1=N\C(=O)Nc1cccc(C(F)(F)F)c1,inactive: -6.07%
8,O=C(Nc1cccn(Cc2cccc(F)c2)c1=O)NC1CCCCC1,inconclusive: -45.3%
9,Cc1cc(C)cc(N(CC(=O)Nc2cc(C)ccc2C)S(=O)(=O)c2c(C)[nH]c(=O)[nH]c2=O)c1,inconclusive: 0%
10,Cc1cc(-c2cccs2)c2c(N)c(C(=O)c3ccc4c(c3)OCO4)sc2n1,inactive: -30%
11,Nc1c(NCc2ccccc2)c(=O)c1=O,inconclusive: -47.7%
12,CCCCN(C)/C=N/c1c(C#N)cnn1-c1ccc(C)cc1,inconclusive: -41.6%
13,C/C(=N\OCc1ccccc1C#N)c1cc2ccccc2o1,inconclusive: -47.6%
14,Cc1ccc(/C=C/C(=O)c2ccc([N+](=O)[O-])o2)cc1,active: -79.2%
15,O=C(Nc1cccc(S(=O)(=O)N2CCCCC2)c1)c1cncc(Br)c1,inconclusive: -47.9%
16,O=C(NCCc1ccc(Cl)cc1)c1ccc2c(c1)N(Cc1ccc(F)cc1Cl)C(=O)CS2,active: -63.6%
17,CCOC(=O)C(=O)N(Nc1ccccc1C)c1ccccc1C,inconclusive: -52.6%
18,O=C(/C=C/c1ccccc1)c1ccc2c3c(cccc13)CC2,inconclusive: -47.2%
19,CCOC(=O)N1CCC(=NNc2ncc(C(F)(F)F)cc2Cl)CC1,inconclusive: -40.3%
20,COc1ccc(CSc2nnc(-c3ccncc3)n2C)cc1F,inconclusive: -41.4%
21,Cc1cccc(NC(=O)/C=C/c2ccc([N+](=O)[O-])s2)c1,active: -97.7%

# Four structures already listed, ordered by length of the SMILES, low to high.
row,Structure (SMILES),"activity change, negative = inhibition"
20,COc1ccc(CSc2nnc(-c3ccncc3)n2C)cc1F,inconclusive: -41.4%
14,Cc1ccc(/C=C/C(=O)c2ccc([N+](=O)[O-])o2)cc1,active: -79.2%
10,Cc1cc(-c2cccs2)c2c(N)c(C(=O)c3ccc4c(c3)OCO4)sc2n1,inactive: -30%
3,CC(C)C[C@H]1CNC(=S)N1CC1CCCN1C[C@H](Cc1ccccc1)N1C[C@H](Cc2ccc(O)cc2)N(CC2CCCCCC2)C1=S (some centres undefined),active: -101%
